## Library screen at single concentrations

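Whole-parasite assay of Trypanosoma brucei over 72 hours; the read-out is not stated. Concentration: 30 µM. Direction is inferred from retests: higher values go with stronger inhibition. Values scatter widely below zero; nearly all retest evidence comes from the higher of the two concentrations used. Of about 64,000 compounds tested this way, about 940 (1.5%) reached 50% or more in at least one test.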

The filed quantity is “Percent Effect” (%). The controls that fix the scale are not given in the record; negative values are as filed. The compounds are a random part of those screened.

* O=C(NCCc1cnccn1)c1cccc(S(=O)(=O)NC2CCOC2)c1 (stereo not shown) : -11.04%
* Cc1noc(C)c1CN1CCC(c2nc3cc(Cl)ccc3o2)CC1 : 6.362%
* O=C(NCCC1CCCO1)c1ccccc1N1CCOCC1 (stereo not shown) : -14.48%
* CC(C)c1nc(/C=C/c2cnn(-c3ccc(Cl)cc3)c2)ncc1C(=O)O : -19.15%
* CC(=O)NC1CCCN(C(=O)NCc2ccc(-n3cccn3)cc2)C1 (stereo not shown) : -6.47%
* CC(C)NC(=O)N1CCc2onc(C(=O)Nc3cccnc3)c2C1.O=C(O)C(F)(F)F : -2.967%
* O=C(O)C(F)(F)F.O=C(O)C(F)(F)F.c1cnc(N2CCCC3(CCN(c4ncccn4)C3)C2)nc1 (stereo not shown) : -31.26%
* Cn1cc(N2CC3(CCN(CC4CCOCC4)CC3)OCC2=O)cn1.O=C(O)C(F)(F)F : 25.92%
* O=C(c1ccccc1F)N1CCOC(c2nc(-c3ncccn3)no2)C1 (stereo not shown) : 8.668%
* Cc1c(C(=O)N2CCC(N3CCCCC3)CC2)n(C)c2ccc(Cl)cc12 : 14.05%
* O=C(CCc1cc2n(n1)CCCNC2)N1CCN(C2CCCC2)C(=O)C1 : -38.97%
* NC(=O)c1ccccc1NC(=O)CCN1CCN(CCO)CC1 : 5.444%
* CC(NC(=O)NCc1cccc(F)c1)(C(=O)O)c1ccco1 (stereo not shown) : -1.75%
* CCNc1cc2c(nn1)CCN(C(=O)c1ccnc(C)n1)C2 : 4.705%
* CN(C)c1cccc(C2CCCN2S(=O)(=O)c2cn(C)cn2)n1 (stereo not shown) : 3.675%
* CC(C)N1Cc2c(C(=O)N3CCN(C)CC3)nn(C)c2C1 : -72.54%
* CCc1n[nH]c(C2CN(Cc3nccn3CC)CCO2)n1 (stereo not shown) : -88.22%
* CC(C)(C)NC(=O)C1CSCN1C(=O)CCc1ccco1 (stereo not shown) : -41.59%
* CC(C)(C)C(=O)NCCC(=O)NS(=O)(=O)c1cccc(C#N)c1 : -22.28%
* CC(CO)CN(Cc1ccccc1)C(=O)c1csc(CN(C)C)n1 (stereo not shown) : 19.86%
* OCc1n[nH]c(-c2ccc(F)cc2)n1 : -3.507%
* Cc1cc(O)n2nc(C3CCN(C(=O)c4ccccn4)CC3)cc2n1 : -12.81%
* O=C(c1ncoc1C1CCCO1)N1CCC2(CCCCC2)CC1 (stereo not shown) : -42.01%
* Cc1ncc(CN(C)C2CCCN(CCc3ccccc3)C2)n1C (stereo not shown) : -8.25%
* O=c1c(CN2CCCCC2)coc2ccc(Cl)cc12 : -41.52%
* O=C(O)C(F)(F)F.O=S(=O)(c1cccs1)N1CCCn2cnc(CO)c2C1 : -7.599%
* Cc1cc(CN2CC3(CCN(C(=O)C4CC4)CC3)CC2C(=O)O)oc1C (stereo not shown) : 10.03%
* c1ccc(CCCN2CCCC(Nc3cnc4ccccc4n3)C2)cc1 (stereo not shown) : -4.161%
* CCc1c(C(=O)NCC2CCS(=O)(=O)C2)cnn1-c1ccc(C)cc1 (stereo not shown) : -12.81%
* CSCC(CCO)NC(=O)c1cccc(Cl)c1F (stereo not shown) : -27.3%
* CCc1noc(CS(=O)(=O)C/C=C/c2ccccc2)n1 : -16.18%
* COc1ccc(CN2CCN(C(C)=O)CC3(CC(=O)N(C)C3)C2)cc1.O=C(O)C(F)(F)F (stereo not shown) : 1.405%
* Cc1cc(C)cc(-n2ncc3c2CCCC3N)c1 (stereo not shown) : -36.85%
* O=C1CC(C(=O)Nc2nnc(-c3ccoc3)[nH]2)c2ccccc2N1 (stereo not shown) : 1.26%
* C[C@]1(O)CCN(Cc2ncccc2F)C[C@@H]1Oc1cccc(F)c1 : -41.69%
* O=C(O)C(F)(F)F.O=C(O)C(F)(F)F.[H][C@@]12COC[C@]1([H])[C@H](OCc1csc(C)n1)CN2Cc1cccnc1 : -12.38%
* O=C(O)C(F)(F)F.c1ccc(N2CCOC3(CCCN(c4nncs4)C3)C2)nc1 (stereo not shown) : 30.32%
* CNC(=O)C(C)CN(C)C(=O)Nc1ccc(Cl)cc1-n1cccc1 (stereo not shown) : 5.312%
* O=C(O)C(F)(F)F.[H][C@@]12OCCC[C@]1([H])N(Cc1ccc(OC)cc1)C[C@@H]2N1CCCC1=O : -52.99%
* CCc1nncn1CCNC(=O)Nc1ccc2c(c1)CCCO2 : 13.98%
* CCOCC1CC2(CCN(C(=O)CC3=CCCCC3)CC2)CO1 (stereo not shown) : -62.59%
* CCC[C@@H]1CN(Cc2cc(OC)c3c(c2)OCO3)C[C@H]1C(=O)O : 2.794%
* O=C1c2c(O)cc(O)cc2O[C@@H](c2ccc(O)cc2)[C@@H]1O : -10.78%

Some entries from above, unchanged:

| SMILES | Percent Effect |
|---|---|
| `CC(C)c1nc(/C=C/c2cnn(-c3ccc(Cl)cc3)c2)ncc1C(=O)O` | -19.15% |
| `CNC(=O)C(C)CN(C)C(=O)Nc1ccc(Cl)cc1-n1cccc1` (stereo not shown) | 5.312% |
| `O=C(CCc1cc2n(n1)CCCNC2)N1CCN(C2CCCC2)C(=O)C1` | -38.97% |
| `CCNc1cc2c(nn1)CCN(C(=O)c1ccnc(C)n1)C2` | 4.705% |

Source: ChEMBL document CHEMBL3988442, “University of Dundee, Small-Polar-MMV Screening Library” (2021).